“And” between values parts separate entries of the source, which are not always exact repeats. Equal values may be shown once. The source gives many values for each of these; only a part stands here.
Assay: Ocular tissue concentrations (aqueous humor, vitreous humor, iris, retina, choroid, cornea) after topical ocular, subcutaneous and intravitreal administration
Type: in vivo, New Zealand White rabbits
Details: for Conc. (ng/mL) OD / Conc. (ng/g) OD: right eye; for Conc. (ng/mL) OD / Conc. (ng/mL) OS / Conc. (ng/g) OS / Conc. (ng/g) OD / Avg.: intravitreal 2.5 mg/eye (group 5); for Conc. (ng/mL) OD / Conc. (ng/mL) OS / Conc. (ng/g) OS / Conc. (ng/g) OD: individual animals; for Conc. (ng/mL) OS / Conc. (ng/g) OS: left eye; for Avg.: average; for Choroid Conc. (ng/mL) OS / Choroid Conc. (ng/mL) OD: TABLE 16: Choroid homogenate; for Choroid Conc. (ng/g) OS / Choroid Conc. (ng/g) OD: TABLE 16: Choroid
Experimental: To measure the concentration of Compound 1 in plasma and ocular tissues following topical ocular, subcutaneous, and intravitreal administration, New Zealand White rabbits were administered Compound 1, and plasma and ocular samples were collected at pre-determined time points. Compound 1 formulations were prepared fresh on each day of dosing.
Ocular tissue samples from both eyes of each animal were collected and weights were recorded. Plasma and ocular tissue sample concentrations of Compound 1 were determined by LC-MS/MS.
New Zealand White rabbits weighing 2.5 to 3.5 kg were used on this study. Rabbits were housed one per cage. Animals were not fasted and only healthy animals with no ocular illness were used. Two rabbits per group were sacrificed at each of four ocular tissue sampling time points for a total of eight rabbits per group.
Animals were anesthetized for ocular (topical) and intravitreal dosing following the 12IA7 IACUC protocol. Each rabbit received a bolus dose of test formulation either via topical ocular administration 3 times daily on Days 1 and 2 (at 0, 6, and 12 hours), and once on Day 3 (at 0 hours) into both eyes; via intravitreal administration into both eyes once on Day 1 (at 0 hours); or via subcutaneous administration 2 times daily on Days 1 and 2 (at 0 and 8 hours) and once daily on Day 3 (at 0 hours). Doses were given within an approximately 1 hour window each day where applicable.
On Day 1, for intravitreal administration, or on Day 3, for topical ocular and subcutaneous administration, at the appropriate ocular tissue collection time points, animals were euthanized and both eyes were enucleated immediately. Following enucleation, each eye was rinsed with phosphate-buffered saline. Ocular tissue samples from both eyes of each animal were collected at predetermined time points and weights were recorded. All the samples were frozen immediately on dry ice, and stored at −60° C. to −80° C. pending bioanalysis.
An LC-MS/MS method was developed for the determination of Compound 1 in rabbit aqueous tissues (plasma, aqueous and vitreous humor) and solid ocular tissue samples. A pre-study standard curve was analyzed to determine the specificity, range, and lower limit of quantitation of the method. Plasma and tissue homogenate study samples were extracted and analyzed. All the samples were treated identically to the standards.
One eight-point standard curve was used in each analytical batch. To be accepted, each batch must have had at least five of eight standards with accuracy within ±20% of nominal, except at the lower limit of quantification (LLOQ), where ±25% was acceptable.
Concentration versus time data is plotted in FIGS. 3-16. All data are expressed as ng/g of the free drug. Samples that were below the limit of quantitation (0.2 ng/mL) were not used in the calculation of averages.

[1] = 0.5 hr, free acid, subcutaneous 5 mg/kg/dose, Group 3
[2] = 1 hr, OD, free acid, subcutaneous 5 mg/kg/dose, Group 3
[3] = 1 hr, free acid, subcutaneous 5 mg/kg/dose, Group 3
[4] = 2 hr, OD, free acid, subcutaneous 5 mg/kg/dose, Group 3
[5] = 2 hr, free acid, subcutaneous 5 mg/kg/dose, Group 3
[6] = 4 hr, OD, free acid, subcutaneous 5 mg/kg/dose, Group 3

Conc. (ng/mL) OD (Iris homogenate, 6.0 hr): 32100 ng/mL
Iris Conc. (ng/mL) OD (Iris homogenate, 24 hr, OD, sodium salt, intravitreal 2.5 mg/eye, Group 4): 11000 ng/mL
Conc. (ng/mL) OS (Iris homogenate, 24 hr): 8200 ng/mL
Conc. (ng/mL) OD (Iris homogenate, 24 hr): 11000 ng/mL
Iris Conc. (ng/mL) OD (Iris homogenate, 48 hr, OD, sodium salt, intravitreal 2.5 mg/eye, Group 4): 1820 ng/mL
Iris Conc. (ng/mL) OS (Iris homogenate, 48 hr, sodium salt, intravitreal 2.5 mg/eye, Group 4): 2780 ng/mL
Conc. (ng/mL) OS (Iris homogenate, 48 hr): 2030 ng/mL
Conc. (ng/mL) OD (Iris homogenate, 48 hr): 1110 ng/mL
Iris Conc. (ng/mL) OD (Iris homogenate, 72 hr, OD, sodium salt, intravitreal 2.5 mg/eye, Group 4): 110 ng/mL
Conc. (ng/mL) OS (Iris homogenate, 72 hr): 1320 ng/mL
Conc. (ng/mL) OD (Iris homogenate, 72 hr): 351 ng/mL
Iris Conc. (ng/g) OD (Iris, 0.5 hr, OD, sodium salt, subcutaneous 5 mg/kg/dose, Group 2): 454 ng/g
Iris Conc. (ng/g) OS (Iris, 0.5 hr, free acid, subcutaneous 5 mg/kg/dose, Group 3): 38.9 ng/g
Iris Conc. (ng/g) OD (Iris, 1 hr, OD, sodium salt, subcutaneous 5 mg/kg/dose, Group 2): 99.2 ng/g
Iris Conc. (ng/g) OS (Iris, 1 hr, free acid, subcutaneous 5 mg/kg/dose, Group 3): 34.3 ng/g
Iris Conc. (ng/g) OS (Iris, 1 hr, sodium salt, subcutaneous 5 mg/kg/dose, Group 2): 56.4 ng/g
Iris Conc. (ng/g) OD (Iris, 2 hr, OD, free acid, subcutaneous 5 mg/kg/dose, Group 3): 32.0 ng/g
Iris Conc. (ng/g) OD (Iris, 4 hr, OD, free acid, subcutaneous 5 mg/kg/dose, Group 3): 17.9 ng/g
Iris Conc. (ng/g) OS (Iris, 4 hr, free acid, subcutaneous 5 mg/kg/dose, Group 3): 8.73 ng/g
Iris Conc. (ng/g) OD (Iris, 6.0 hr, OD, sodium salt, intravitreal 2.5 mg/eye, Group 4): 305800 ng/g
Iris Conc. (ng/g) OS (Iris, 6.0 hr, sodium salt, intravitreal 2.5 mg/eye, Group 4): 336600 ng/g
Conc. (ng/g) OS (Iris, 6.0 hr): 134200 ng/g
Conc. (ng/g) OD (Iris, 6.0 hr): 353100 ng/g
Iris Conc. (ng/g) OD (Iris, 24 hr, OD, sodium salt, intravitreal 2.5 mg/eye, Group 4): 121000 ng/g
Conc. (ng/g) OS (Iris, 24 hr): 90200 ng/g
Conc. (ng/g) OD (Iris, 24 hr): 121000 ng/g
Iris Conc. (ng/g) OD (Iris, 48 hr, OD, sodium salt, intravitreal 2.5 mg/eye, Group 4): 20020 ng/g
Iris Conc. (ng/g) OS (Iris, 48 hr, sodium salt, intravitreal 2.5 mg/eye, Group 4): 30580 ng/g
Conc. (ng/g) OS (Iris, 48 hr): 22330 ng/g
Conc. (ng/g) OD (Iris, 48 hr): 12210 ng/g
Iris Conc. (ng/g) OD (Iris, 72 hr, OD, sodium salt, intravitreal 2.5 mg/eye, Group 4): 1210 ng/g
Conc. (ng/g) OS (Iris, 72 hr): 14520 ng/g
Conc. (ng/g) OD (Iris, 72 hr): 3861 ng/g
Retina Conc. (ng/mL) OD (Retina homogenate, 0.5 hr, OD, sodium salt, subcutaneous 5 mg/kg/dose, Group 2): 3.17 ng/mL
Retina Conc. (ng/mL) OS (Retina homogenate, 0.5 hr, sodium salt, subcutaneous 5 mg/kg/dose, Group 2): 4.43 ng/mL
Retina Conc. (ng/mL) OD (Retina homogenate, 1 hr, OD, sodium salt, subcutaneous 5 mg/kg/dose, Group 2): 1.66 ng/mL
Retina Conc. (ng/mL) OS (Retina homogenate, 1 hr, free acid, subcutaneous 5 mg/kg/dose, Group 3): 1.21 ng/mL
Retina Conc. (ng/mL) OS (Retina homogenate, 1 hr, sodium salt, subcutaneous 5 mg/kg/dose, Group 2): 4.22 ng/mL
Conc. (ng/mL) OS (Retina homogenate, 6.0 hr): 120000 ng/mL
Conc. (ng/mL) OD (Retina homogenate, 6.0 hr): 146000 ng/mL and 303000 ng/mL
Retina Conc. (ng/mL) OD (Retina homogenate, 24 hr, OD, sodium salt, intravitreal 2.5 mg/eye, Group 4): 35200 ng/mL
Conc. (ng/mL) OS (Retina homogenate, 24 hr): 98900 ng/mL and 198000 ng/mL
Conc. (ng/mL) OD (Retina homogenate, 24 hr): 145000 ng/mL
Retina Conc. (ng/mL) OD (Retina homogenate, 48 hr, OD, sodium salt, intravitreal 2.5 mg/eye, Group 4): 7360 ng/mL
Retina Conc. (ng/mL) OS (Retina homogenate, 48 hr, sodium salt, intravitreal 2.5 mg/eye, Group 4): 6530 ng/mL
Conc. (ng/mL) OS (Retina homogenate, 48 hr): 14000 ng/mL and 101000 ng/mL
Conc. (ng/mL) OD (Retina homogenate, 48 hr): 65500 ng/mL
Retina Conc. (ng/mL) OD (Retina homogenate, 72 hr, OD, sodium salt, intravitreal 2.5 mg/eye, Group 4): 598 ng/mL
Retina Conc. (ng/mL) OS (Retina homogenate, 72 hr, sodium salt, intravitreal 2.5 mg/eye, Group 4): 484 ng/mL
Conc. (ng/mL) OS (Retina homogenate, 72 hr): 12900 ng/mL
Conc. (ng/mL) OD (Retina homogenate, 72 hr): 6070 ng/mL
Retina Conc. (ng/g) OD (Retina, 0.5 hr, OD, sodium salt, subcutaneous 5 mg/kg/dose, Group 2): 34.9 ng/g
Retina Conc. (ng/g) OS (Retina, 0.5 hr, sodium salt, subcutaneous 5 mg/kg/dose, Group 2): 48.7 ng/g
Retina Conc. (ng/g) OD (Retina, 1 hr, OD, sodium salt, subcutaneous 5 mg/kg/dose, Group 2): 18.3 ng/g
Retina Conc. (ng/g) OS (Retina, 1 hr, free acid, subcutaneous 5 mg/kg/dose, Group 3): 13.3 ng/g
Retina Conc. (ng/g) OS (Retina, 1 hr, sodium salt, subcutaneous 5 mg/kg/dose, Group 2): 46.4 ng/g
Avg. (Retina, 6.0 hr): 1988250 ng/g
Conc. (ng/g) OS (Retina, 6.0 hr): 1694000 ng/g and 1320000 ng/g
Conc. (ng/g) OD (Retina, 6.0 hr): 1606000 ng/g
Retina Conc. (ng/g) OD (Retina, 24 hr, OD, sodium salt, intravitreal 2.5 mg/eye, Group 4): 387200 ng/g
Retina Conc. (ng/g) OS (Retina, 24 hr, sodium salt, intravitreal 2.5 mg/eye, Group 4): 407000 ng/g
Avg. (Retina, 24 hr): 1572725 ng/g
Conc. (ng/g) OS (Retina, 24 hr): 1087900 ng/g and 2178000 ng/g
Conc. (ng/g) OD (Retina, 24 hr): 1430000 ng/g and 1595000 ng/g
Retina Conc. (ng/g) OD (Retina, 48 hr, OD, sodium salt, intravitreal 2.5 mg/eye, Group 4): 80960 ng/g
Retina Conc. (ng/g) OS (Retina, 48 hr, sodium salt, intravitreal 2.5 mg/eye, Group 4): 71830 ng/g
Conc. (ng/g) OS (Retina, 48 hr): 1111000 ng/g
Conc. (ng/g) OD (Retina, 48 hr): 720500 ng/g
Retina Conc. (ng/g) OD (Retina, 72 hr, OD, sodium salt, intravitreal 2.5 mg/eye, Group 4): 6578 ng/g
Retina Conc. (ng/g) OS (Retina, 72 hr, sodium salt, intravitreal 2.5 mg/eye, Group 4): 5324 ng/g
Conc. (ng/g) OS (Retina, 72 hr): 141900 ng/g
Conc. (ng/g) OD (Retina, 72 hr): 66770 ng/g
Choroid Conc. (ng/mL) OS [1]: 14.0 ng/mL
Choroid Conc. (ng/mL) OD [2]: 8.65 ng/mL
Choroid Conc. (ng/mL) OS [3]: 7.60 ng/mL
Choroid Conc. (ng/mL) OD [4]: 4.26 ng/mL
Choroid Conc. (ng/mL) OS [5]: 4.94 ng/mL
Choroid Conc. (ng/mL) OD [6]: 4.65 ng/mL
Choroid Conc. (ng/g) OS [1]: 154 ng/g
Choroid Conc. (ng/g) OD [2]: 95.2 ng/g
Choroid Conc. (ng/g) OS [3]: 83.6 ng/g
Choroid Conc. (ng/g) OD [4]: 46.9 ng/g
Choroid Conc. (ng/g) OS [5]: 54.3 ng/g
Choroid Conc. (ng/g) OD [6]: 51.2 ng/g
Cornea Conc. (ng/mL) OD (TABLE 16: Cornea homogenate, 4 hr, OD, free acid, subcutaneous 5 mg/kg/dose, Group 3): 0.847 ng/mL
Cornea Conc. (ng/g) OD (TABLE 16: Cornea, 4 hr, OD, free acid, subcutaneous 5 mg/kg/dose, Group 3): 9.32 ng/g
Iris Conc. (ng/mL) OS (TABLE 16: Iris homogenate, 0.5 hr, free acid, subcutaneous 5 mg/kg/dose, Group 3): 3.54 ng/mL
Iris Conc. (ng/mL) OS (TABLE 16: Iris homogenate, 1 hr, free acid, subcutaneous 5 mg/kg/dose, Group 3): 3.12 ng/mL
Iris Conc. (ng/mL) OD (TABLE 16: Iris homogenate, 2 hr, OD, free acid, subcutaneous 5 mg/kg/dose, Group 3): 2.91 ng/mL
Iris Conc. (ng/mL) OS (TABLE 16: Iris homogenate, 2 hr, free acid, subcutaneous 5 mg/kg/dose, Group 3): 1.67 ng/mL
Iris Conc. (ng/mL) OD (TABLE 16: Iris homogenate, 4 hr, OD, free acid, subcutaneous 5 mg/kg/dose, Group 3): 1.63 ng/mL
Iris Conc. (ng/mL) OS (TABLE 16: Iris homogenate, 4 hr, free acid, subcutaneous 5 mg/kg/dose, Group 3): 0.794 ng/mL
Iris Conc. (ng/g) OS (TABLE 16: Iris, 0.5 hr, free acid, subcutaneous 5 mg/kg/dose, Group 3): 38.9 ng/g
Iris Conc. (ng/g) OS (TABLE 16: Iris, 1 hr, free acid, subcutaneous 5 mg/kg/dose, Group 3): 34.3 ng/g
Iris Conc. (ng/g) OD (TABLE 16: Iris, 2 hr, OD, free acid, subcutaneous 5 mg/kg/dose, Group 3): 32.0 ng/g
Iris Conc. (ng/g) OD (TABLE 16: Iris, 4 hr, OD, free acid, subcutaneous 5 mg/kg/dose, Group 3): 17.9 ng/g
Iris Conc. (ng/g) OS (TABLE 16: Iris, 4 hr, free acid, subcutaneous 5 mg/kg/dose, Group 3): 8.73 ng/g
Retina Conc. (ng/mL) OS (TABLE 16: Retina homogenate, 1 hr, free acid, subcutaneous 5 mg/kg/dose, Group 3): 1.21 ng/mL
Retina Conc. (ng/g) OS (TABLE 16: Retina, 1 hr, free acid, subcutaneous 5 mg/kg/dose, Group 3): 13.3 ng/g
Compound: COC(=O)N[C@@H](Cc1ccccc1)C(=O)N[C@@H](Cc1ccc(NS(=O)(=O)O)cc1)c1csc(-c2cccs2)n1 [Compound 1]
